Assay results taken from the supplement of paper PMC10849652.
This is one part of the list.

Sequences of proteins named here, by UniProt entry; tags and fusion partners are left off. A change or cut given only in a name is not applied to a line headed by its entry.
UniProt Q99720, whole entry, looked up: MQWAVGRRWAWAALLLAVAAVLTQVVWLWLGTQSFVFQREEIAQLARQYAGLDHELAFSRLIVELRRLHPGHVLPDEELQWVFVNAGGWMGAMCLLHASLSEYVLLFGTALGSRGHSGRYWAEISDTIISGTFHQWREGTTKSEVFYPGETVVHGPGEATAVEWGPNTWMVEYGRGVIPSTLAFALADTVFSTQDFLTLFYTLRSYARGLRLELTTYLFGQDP
UniProt Q96ST3: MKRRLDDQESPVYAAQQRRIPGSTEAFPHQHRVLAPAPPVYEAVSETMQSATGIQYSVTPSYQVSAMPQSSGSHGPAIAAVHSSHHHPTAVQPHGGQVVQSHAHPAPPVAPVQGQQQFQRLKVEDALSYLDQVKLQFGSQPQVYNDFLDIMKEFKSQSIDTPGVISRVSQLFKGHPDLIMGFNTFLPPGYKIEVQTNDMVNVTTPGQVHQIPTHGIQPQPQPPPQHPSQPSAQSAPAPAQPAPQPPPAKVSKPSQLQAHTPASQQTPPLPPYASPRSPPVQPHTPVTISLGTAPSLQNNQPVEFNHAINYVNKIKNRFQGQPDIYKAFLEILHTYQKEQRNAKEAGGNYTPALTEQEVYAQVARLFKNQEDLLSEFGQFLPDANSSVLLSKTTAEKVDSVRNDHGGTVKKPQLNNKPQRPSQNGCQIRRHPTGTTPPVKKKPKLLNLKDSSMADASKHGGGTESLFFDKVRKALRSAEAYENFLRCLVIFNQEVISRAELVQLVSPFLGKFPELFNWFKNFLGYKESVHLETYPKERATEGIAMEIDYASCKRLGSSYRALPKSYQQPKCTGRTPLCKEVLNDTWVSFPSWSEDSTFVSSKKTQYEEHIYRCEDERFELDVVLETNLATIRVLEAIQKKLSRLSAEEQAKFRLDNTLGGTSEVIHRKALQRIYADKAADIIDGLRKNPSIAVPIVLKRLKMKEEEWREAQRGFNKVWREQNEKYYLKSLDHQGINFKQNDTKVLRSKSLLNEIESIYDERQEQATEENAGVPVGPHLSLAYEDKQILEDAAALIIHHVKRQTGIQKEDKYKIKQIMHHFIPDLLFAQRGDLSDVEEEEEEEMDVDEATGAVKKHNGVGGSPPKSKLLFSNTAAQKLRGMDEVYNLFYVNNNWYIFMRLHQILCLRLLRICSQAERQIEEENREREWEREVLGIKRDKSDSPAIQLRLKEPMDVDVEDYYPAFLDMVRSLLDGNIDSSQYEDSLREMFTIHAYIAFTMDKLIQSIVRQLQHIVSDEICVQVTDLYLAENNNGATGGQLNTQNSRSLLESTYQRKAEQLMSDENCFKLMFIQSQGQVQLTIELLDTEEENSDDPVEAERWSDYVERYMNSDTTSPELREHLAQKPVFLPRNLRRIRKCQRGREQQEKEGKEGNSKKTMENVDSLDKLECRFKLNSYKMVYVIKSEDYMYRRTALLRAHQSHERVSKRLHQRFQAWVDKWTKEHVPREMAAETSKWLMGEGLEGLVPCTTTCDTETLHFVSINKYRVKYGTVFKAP
UniProt Q8WVK7: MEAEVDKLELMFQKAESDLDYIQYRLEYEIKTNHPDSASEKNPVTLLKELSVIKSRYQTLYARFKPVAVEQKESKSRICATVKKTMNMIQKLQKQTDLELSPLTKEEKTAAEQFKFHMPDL
UniProt P50454: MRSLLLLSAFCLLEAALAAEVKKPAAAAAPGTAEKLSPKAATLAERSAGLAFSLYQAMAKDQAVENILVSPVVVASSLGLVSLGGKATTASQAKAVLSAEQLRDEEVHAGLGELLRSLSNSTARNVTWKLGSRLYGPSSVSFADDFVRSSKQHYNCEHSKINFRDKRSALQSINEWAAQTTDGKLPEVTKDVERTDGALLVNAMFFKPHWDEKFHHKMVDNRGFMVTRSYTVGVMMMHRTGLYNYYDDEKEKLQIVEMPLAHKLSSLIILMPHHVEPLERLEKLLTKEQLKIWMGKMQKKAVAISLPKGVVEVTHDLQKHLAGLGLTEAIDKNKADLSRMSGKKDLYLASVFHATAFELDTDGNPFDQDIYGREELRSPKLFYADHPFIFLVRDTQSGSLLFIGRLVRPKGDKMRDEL
UniProt Q08357: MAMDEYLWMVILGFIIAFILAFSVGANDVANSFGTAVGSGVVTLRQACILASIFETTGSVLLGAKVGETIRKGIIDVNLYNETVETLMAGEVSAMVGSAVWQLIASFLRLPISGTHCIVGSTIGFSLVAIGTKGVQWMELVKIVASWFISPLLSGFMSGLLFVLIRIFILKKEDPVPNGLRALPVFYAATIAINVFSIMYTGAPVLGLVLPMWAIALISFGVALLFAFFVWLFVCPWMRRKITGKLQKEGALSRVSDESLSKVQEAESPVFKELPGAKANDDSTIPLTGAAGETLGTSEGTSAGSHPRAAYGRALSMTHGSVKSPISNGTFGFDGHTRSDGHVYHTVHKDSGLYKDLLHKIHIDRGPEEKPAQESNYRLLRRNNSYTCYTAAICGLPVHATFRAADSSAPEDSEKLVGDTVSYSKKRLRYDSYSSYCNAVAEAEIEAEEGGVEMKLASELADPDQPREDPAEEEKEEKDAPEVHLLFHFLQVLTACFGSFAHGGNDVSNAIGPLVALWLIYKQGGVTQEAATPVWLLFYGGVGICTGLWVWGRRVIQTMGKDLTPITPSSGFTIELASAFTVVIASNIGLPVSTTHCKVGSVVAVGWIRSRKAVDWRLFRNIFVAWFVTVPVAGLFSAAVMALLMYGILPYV
UniProt Q15758: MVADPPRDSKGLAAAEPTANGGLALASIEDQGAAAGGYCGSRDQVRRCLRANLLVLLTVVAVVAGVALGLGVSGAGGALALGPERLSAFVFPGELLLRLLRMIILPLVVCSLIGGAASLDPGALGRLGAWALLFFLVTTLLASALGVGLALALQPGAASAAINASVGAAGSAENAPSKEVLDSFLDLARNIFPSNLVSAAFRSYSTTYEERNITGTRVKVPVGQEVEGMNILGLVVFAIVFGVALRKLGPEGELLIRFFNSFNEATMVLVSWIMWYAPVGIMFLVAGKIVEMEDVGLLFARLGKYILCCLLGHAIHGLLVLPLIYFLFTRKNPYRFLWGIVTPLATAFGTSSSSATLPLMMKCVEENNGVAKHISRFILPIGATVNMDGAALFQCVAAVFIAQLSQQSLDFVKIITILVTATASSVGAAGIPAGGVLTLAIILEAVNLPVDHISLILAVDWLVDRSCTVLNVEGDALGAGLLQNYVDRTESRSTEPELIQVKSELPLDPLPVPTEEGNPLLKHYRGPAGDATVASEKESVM
UniProt Q15427: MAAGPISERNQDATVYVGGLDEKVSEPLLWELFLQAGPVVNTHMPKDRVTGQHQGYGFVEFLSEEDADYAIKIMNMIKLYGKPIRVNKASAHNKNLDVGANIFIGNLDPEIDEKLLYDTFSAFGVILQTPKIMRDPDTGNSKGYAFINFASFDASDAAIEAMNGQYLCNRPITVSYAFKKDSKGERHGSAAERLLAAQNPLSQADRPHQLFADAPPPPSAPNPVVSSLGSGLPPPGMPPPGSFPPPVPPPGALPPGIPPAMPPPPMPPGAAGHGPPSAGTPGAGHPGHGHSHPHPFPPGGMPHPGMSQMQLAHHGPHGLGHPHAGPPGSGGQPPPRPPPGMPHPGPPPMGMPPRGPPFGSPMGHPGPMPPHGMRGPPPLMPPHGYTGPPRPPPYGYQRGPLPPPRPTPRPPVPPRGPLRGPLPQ
UniProt P55011: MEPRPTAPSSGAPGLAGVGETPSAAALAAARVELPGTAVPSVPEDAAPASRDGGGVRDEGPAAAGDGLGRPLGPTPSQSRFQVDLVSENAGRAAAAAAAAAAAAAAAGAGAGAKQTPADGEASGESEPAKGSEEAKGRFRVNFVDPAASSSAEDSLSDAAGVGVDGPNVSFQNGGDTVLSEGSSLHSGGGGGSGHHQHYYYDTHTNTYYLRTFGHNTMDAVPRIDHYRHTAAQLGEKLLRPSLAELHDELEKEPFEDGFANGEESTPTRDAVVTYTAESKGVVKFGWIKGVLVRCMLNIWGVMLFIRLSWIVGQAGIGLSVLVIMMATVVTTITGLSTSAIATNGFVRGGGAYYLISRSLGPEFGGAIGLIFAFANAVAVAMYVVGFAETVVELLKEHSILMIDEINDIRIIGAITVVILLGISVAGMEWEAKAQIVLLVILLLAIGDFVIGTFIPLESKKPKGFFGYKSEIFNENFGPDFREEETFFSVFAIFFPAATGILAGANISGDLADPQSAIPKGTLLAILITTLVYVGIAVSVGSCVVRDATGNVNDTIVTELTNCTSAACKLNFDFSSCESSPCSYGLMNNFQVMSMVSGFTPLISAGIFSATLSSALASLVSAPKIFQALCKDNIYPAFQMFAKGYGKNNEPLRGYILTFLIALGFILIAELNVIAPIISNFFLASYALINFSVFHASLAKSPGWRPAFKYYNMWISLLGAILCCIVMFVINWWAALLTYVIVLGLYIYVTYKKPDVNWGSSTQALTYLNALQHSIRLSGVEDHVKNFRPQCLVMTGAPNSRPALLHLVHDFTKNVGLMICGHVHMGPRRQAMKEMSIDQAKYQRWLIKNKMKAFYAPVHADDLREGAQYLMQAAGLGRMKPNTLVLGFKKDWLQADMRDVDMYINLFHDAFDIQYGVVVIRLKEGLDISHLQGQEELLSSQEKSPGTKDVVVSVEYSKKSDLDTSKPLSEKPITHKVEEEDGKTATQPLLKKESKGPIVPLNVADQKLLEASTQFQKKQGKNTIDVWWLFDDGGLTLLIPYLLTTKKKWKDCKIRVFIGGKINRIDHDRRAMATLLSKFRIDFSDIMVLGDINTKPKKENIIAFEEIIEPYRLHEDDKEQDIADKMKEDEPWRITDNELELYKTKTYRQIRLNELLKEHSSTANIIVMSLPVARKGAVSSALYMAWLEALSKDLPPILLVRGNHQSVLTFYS
UniProt Q9BRG2: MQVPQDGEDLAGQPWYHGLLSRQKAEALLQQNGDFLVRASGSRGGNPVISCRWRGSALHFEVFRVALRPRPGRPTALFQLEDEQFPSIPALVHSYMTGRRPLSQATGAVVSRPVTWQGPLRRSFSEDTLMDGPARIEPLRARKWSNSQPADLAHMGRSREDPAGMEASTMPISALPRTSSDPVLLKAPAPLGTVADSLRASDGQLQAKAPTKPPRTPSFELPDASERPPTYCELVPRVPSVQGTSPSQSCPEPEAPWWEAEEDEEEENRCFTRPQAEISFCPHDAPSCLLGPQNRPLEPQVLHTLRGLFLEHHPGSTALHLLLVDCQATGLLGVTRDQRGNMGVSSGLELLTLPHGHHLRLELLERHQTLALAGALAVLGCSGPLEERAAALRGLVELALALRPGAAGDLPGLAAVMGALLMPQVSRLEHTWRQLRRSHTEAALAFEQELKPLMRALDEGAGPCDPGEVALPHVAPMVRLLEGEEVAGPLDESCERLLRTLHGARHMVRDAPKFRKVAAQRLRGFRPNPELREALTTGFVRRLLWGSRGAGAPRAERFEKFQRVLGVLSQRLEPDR
UniProt P78314: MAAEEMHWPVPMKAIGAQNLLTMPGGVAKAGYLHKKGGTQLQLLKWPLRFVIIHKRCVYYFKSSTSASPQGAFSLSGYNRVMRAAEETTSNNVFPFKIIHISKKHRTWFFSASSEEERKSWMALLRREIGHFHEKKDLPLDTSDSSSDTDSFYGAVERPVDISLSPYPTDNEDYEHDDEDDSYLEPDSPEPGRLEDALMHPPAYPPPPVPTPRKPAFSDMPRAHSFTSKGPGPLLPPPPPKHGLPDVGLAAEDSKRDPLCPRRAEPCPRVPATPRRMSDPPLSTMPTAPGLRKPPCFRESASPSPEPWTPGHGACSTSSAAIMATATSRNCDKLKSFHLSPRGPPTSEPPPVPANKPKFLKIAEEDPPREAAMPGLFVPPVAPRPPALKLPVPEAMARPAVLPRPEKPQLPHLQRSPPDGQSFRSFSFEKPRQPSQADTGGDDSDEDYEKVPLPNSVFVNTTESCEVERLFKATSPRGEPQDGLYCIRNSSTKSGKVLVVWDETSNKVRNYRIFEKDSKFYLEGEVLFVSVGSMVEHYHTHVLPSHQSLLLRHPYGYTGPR
UniProt P30740: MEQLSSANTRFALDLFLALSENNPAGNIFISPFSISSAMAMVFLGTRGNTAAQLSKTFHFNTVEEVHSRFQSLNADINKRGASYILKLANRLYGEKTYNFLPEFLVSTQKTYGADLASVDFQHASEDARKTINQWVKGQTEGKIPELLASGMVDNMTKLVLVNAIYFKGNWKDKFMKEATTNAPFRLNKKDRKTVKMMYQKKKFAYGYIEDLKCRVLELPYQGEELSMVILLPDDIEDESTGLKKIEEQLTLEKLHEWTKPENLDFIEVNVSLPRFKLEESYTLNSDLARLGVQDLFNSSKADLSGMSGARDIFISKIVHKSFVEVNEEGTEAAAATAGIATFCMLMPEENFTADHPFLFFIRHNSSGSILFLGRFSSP

Legend:
Experiment in all cases: log2 fold change, soluble protein after heating vs DMSO (PISA); higher = thermal stabilisation; K562 lysate, 10 uM; active = over 0.2 and 3.5 SD of the protein, either way, in both replicates (recomputed)
[1] = compound: C1=CC=C(C=C1)[C@H](COC2=CC3=C(C=C2)NC(=O)N3)NC(=O)C4=CC=CN(C4=O)CC5=CC(=C(C=C5)F)F
Summary of the method: (§1)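 Thermal stability, expressed as log-two fold change relative to solvent controls, is given from duplicates. Crude K562 extract in PBS pH 7.4 with 1 mM MgCl2, at 1 mg/mL protein, was treated with 10 μM compound for 30 min and heated in aliquots for 3 min across 48°C-58°C. After pooling, adjustment to 0.5% NP-40 at 4°C and centrifugation at 21,000xg for 90 min, supernatant protein was measured by TMTpro 16plex LC-MS/MS with channel sums equalised.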

[2] = compound: CC1=C(SC2=C1C(=N[C@H](C3=NN=C(N32)C)CC(=O)N)C4=CC=C(C=C4)Cl)C
Summary of the method: as §1

[3] = compound: CC1=C2C(=CC=C1)N=C(N(C2=O)C3=CC=CC=C3C)CN4C=NC5=C(N=CN=C54)N
Summary of the method: as §1

[4] = compound: Cc1sc2c(c1C)C(c1ccc(Cl)cc1)=N[C@@H](CC(=O)OC(C)(C)C)c1nnc(C)n1-2
Summary of the method: as §1

[5] = compound: c1ccc([C@@H]2C[C@H]2NC2CCNCC2)cc1
Summary of the method: as §1

Measured: log2 fold change

SIGMAR1 (UniProt Q99720)
inactive: [1] -0.025 | [2] -0.046 | [3] -0.034 | [4] 0.018 | [5] -0.124

SIN3A (UniProt Q96ST3)
inactive: [1] -0.01 | [2] -0.005 | [3] 0.02 | [4] 0.021 | [5] 0.045

SH3BGR (UniProt P55822)
inactive: [1] 0.111 | [2] -0.025 | [3] 0.017 | [4] 0.075 | [5] -0.014

SKA2 (UniProt Q8WVK7)
inactive: [1] -0.013 | [2] -0.038 | [3] 0.031 | [4] -0.004 | [5] 0.033

SF3B2 (UniProt Q13435)
inactive: [1] 0.029 | [2] 0.021 | [3] 0.017 | [4] -0.012 | [5] -0.025

SH3GLB1 isoform 2 (UniProt Q9Y371)
inactive: [1] 0.077 | [2] 0.014 | [3] 0.019 | [4] 0.031 | [5] -0.031

SH3BP5 (UniProt O60239)
inactive: [1] 0.035 | [2] -0.045 | [3] -0.043 | [4] -0.032 | [5] 0.013

SERPINH1 (UniProt P50454)
inactive: [1] 0.01 | [2] 0.021 | [3] -0.003 | [4] -0.01 | [5] 0

SHROOM1 (UniProt Q2M3G4)
inactive: [1] 0.032 | [2] 0.013 | [3] 0.045 | [4] 0.013 | [5] 0

SHFL (UniProt Q9NUL5)
inactive: [1] 0.167 | [2] -0.058 | [3] -0.04 | [4] -0.04

SFXN2 (UniProt Q96NB2)
inactive: [1] -0.021 | [2] -0.02 | [3] 0.022 | [4] 0.006 | [5] -0.039

SLC20A2 (UniProt Q08357)
inactive: [1] 0.062 | [2] 0.054 | [3] 0.202 | [4] -0.066 | [5] 0.06

Reprinted from the results shown (6 entries):
SKA2 (UniProt Q8WVK7)
inactive: [1] -0.013 | [2] -0.038 | [3] 0.031 | [4] -0.004 | [5] 0.033

SF3B2 (UniProt Q13435)
inactive: [1] 0.029 | [2] 0.021 | [3] 0.017 | [4] -0.012 | [5] -0.025

SH3GLB1 isoform 2 (UniProt Q9Y371)
inactive: [1] 0.077 | [2] 0.014 | [3] 0.019 | [4] 0.031 | [5] -0.031

SH3BP5 (UniProt O60239)
inactive: [1] 0.035 | [2] -0.045 | [3] -0.043 | [4] -0.032 | [5] 0.013

SERPINH1 (UniProt P50454)
inactive: [1] 0.01 | [2] 0.021 | [3] -0.003 | [4] -0.01 | [5] 0

SHROOM1 (UniProt Q2M3G4)
inactive: [1] 0.032 | [2] 0.013 | [3] 0.045 | [4] 0.013 | [5] 0

Going on with the list.

SFN (UniProt P31947)
inactive: [1] 0.039 | [2] -0.033 | [3] -0.023 | [4] 0.041 | [5] 0.046

SLC1A5 (UniProt Q15758)
inactive: [1] 0.031 | [2] -0.017 | [3] -0.014 | [4] -0.049 | [5] -0.071

SIRT1 (UniProt Q96EB6)
inactive: [1] 0.006 | [2] 0.045 | [3] 0.016 | [4] -0.006 | [5] 0.068

SF3B4 (UniProt Q15427)
inactive: [1] 0.032 | [2] -0.074 | [3] -0.024 | [4] -0.024 | [5] -0.092

SETD3 (UniProt Q86TU7)
inactive: [1] 0.044 | [2] -0.008 | [3] -0.004 | [4] -0.008 | [5] 0.011

SGO2 (UniProt Q562F6)
inactive: [1] 0.038 | [2] -0.058

SLC12A2 (UniProt P55011)
inactive: [1] -0.056 | [2] 0.011 | [3] -0.049 | [4] -0.053 | [5] 0.106

SHMT2 (UniProt G3V2Y4)
inactive: [1] -0.058 | [2] 0.165

SERBP1 (UniProt Q8NC51)
inactive: [1] 0.027 | [2] -0.006 | [3] -0.006 | [4] 0.017 | [5] 0.015

SH2D3A (UniProt Q9BRG2)
inactive: [1] 0 | [2] -0.234

SH3BP2 isoform 4 (UniProt P78314)
inactive: [1] -0.05 | [2] 0.211 | [3] -0.124 | [4] 0.035 | [5] -0.021

SETD1B (UniProt Q9UPS6)
inactive: [1] -0.089 | [2] 0.03 | [3] 0.017 | [4] -0.041 | [5] -0.054

SERPINB1 (UniProt P30740)
inactive: [1] -0.014 | [2] 0.039 | [3] -0.001 | [4] 0.027 | [5] 0.02

SKA1 (UniProt Q96BD8)
inactive: [1] -0.03 | [2] 0.005 | [3] 0.025 | [4] -0.018 | [5] 0.018
